PubChem BioAssay AID1259308 | NCATS – 2017
In all, the deposit lists about 59,000 reagents; shown is an unselected part. About 1,510 of all reagents (2.6%) were called active. 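Calls use total luciferase alone and ignore viability, so some active siRNAs may act by altering cell number.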 Unmarked entries are inactive. Reagents against one gene are numbered here. Further read-outs or replicates are left out here.

- Screen: 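Candidate targets for better recombinant protein yield in mammalian cells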 (primary screen)
- System: human HEK293 embryonic kidney cells stably expressing firefly luciferase (HEK-CMV-Luc2-Hygro)
- Reagents: single siRNA against human genes, 0.8 pmol siRNA per well
- Duration: 72 h
- Measured: 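Reporter luminescence and viable-cell signal on separate replicate plates, given as percent of non-targeting control and median/MAD z-scores, plus per-cell luciferase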
- Reading the numbers: total luciferase, z-score and total luciferase, % of control: higher = more reporter protein produced
- Rule for the call: 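An siRNA counts as active if its total luciferase robust z-score exceeds 3; genes with two or more such siRNAs out of three were retested with fresh siRNAs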
- Calls: active = raised luciferase; inactive = no rise

| gene | reagent no. | total luciferase, z-score | total luciferase, % of control |
| --- | --- | --- | --- |
| MSTN | 1 | 0.527 | 92.4 |
| MSTN | 2 | -0.443 | 73.1 |
| MSTN | 3 | 3.93 (active) | 160 |
| ING4 | 1 | 0.232 | 86.5 |
| ING4 | 2 | -2.26 | 37 |
| ING4 | 3 | 0.88 | 99.4 |
| FPGT | 1 | 0.919 | 100 |
| FPGT | 2 | -1.67 | 48.6 |
| FPGT | 3 | -1.4 | 54 |
| TMOD3 | 1 | -0.197 | 78 |
| TMOD3 | 2 | -1.33 | 55.4 |
| TMOD3 | 3 | -0.271 | 76.5 |
| DDX23 | 1 | 0.186 | 85.6 |
| DDX23 | 2 | -3.16 | 19.1 |
| DDX23 | 3 | 3.36 (active) | 149 |
| GALNT11 | 1 | 1.26 | 107 |
| GALNT11 | 2 | -0.012 | 81.6 |
| GALNT11 | 3 | -0.428 | 73.4 |
| BBS10 | 1 | -0.158 | 78.7 |
| BBS10 | 2 | 1.94 | 120 |
| BBS10 | 3 | -0.544 | 71.1 |
| ASB13 | 1 | 0.0603 | 83.1 |
| ASB13 | 2 | -0.888 | 64.2 |
| ASB13 | 3 | 0.28 | 87.5 |

Entries listed so far whose gene name begins with T or t (3):
| gene | reagent no. | total luciferase, z-score | total luciferase, % of control |
| --- | --- | --- | --- |
| TMOD3 | 1 | -0.197 | 78 |
| TMOD3 | 2 | -1.33 | 55.4 |
| TMOD3 | 3 | -0.271 | 76.5 |

The list goes on:
| gene | reagent no. | total luciferase, z-score | total luciferase, % of control |
| --- | --- | --- | --- |
| TGS1 | 1 | -1.11 | 59.8 |
| TGS1 | 2 | 0.13 | 84.5 |
| TGS1 | 3 | -0.504 | 71.9 |
| ARC | 1 | -2.49 | 32.3 |
| ARC | 2 | -0.309 | 75.7 |
| ARC | 3 | 0.389 | 89.6 |
| CPNE6 | 1 | -1.09 | 60.3 |
| CPNE6 | 2 | 0.323 | 88.3 |
| CPNE6 | 3 | 0.912 | 100 |
| PPFIA3 | 1 | 0.124 | 84.3 |
| PPFIA3 | 2 | -1.21 | 57.9 |
| PPFIA3 | 3 | -1.18 | 58.4 |
| MGAT5B | 1 | -0.182 | 78.3 |
| MGAT5B | 2 | 0.296 | 87.8 |
| MGAT5B | 3 | 0.00312 | 81.9 |
| RTL1 | 1 | 2.39 | 129 |
| RTL1 | 2 | -0.379 | 74.3 |
| RTL1 | 3 | 0.605 | 93.9 |
| TXLNG | 1 | 1.03 | 102 |
| TXLNG | 2 | -0.192 | 78.1 |
| TXLNG | 3 | 0.908 | 99.9 |
| ZNF135 | 1 | -0.915 | 63.7 |
| ZNF135 | 2 | 0.15 | 84.9 |
| ZNF135 | 3 | 0.202 | 85.9 |
| MAX | 1 | 2.41 | 130 |
| MAX | 2 | -1.42 | 53.6 |
| MAX | 3 | 0.131 | 84.5 |
| RAD17 | 1 | 3.48 (active) | 151 |
| RAD17 | 2 | 0.312 | 88.1 |
| RAD17 | 3 | -1 | 62 |
| RSRP1 | 1 | 0.989 | 102 |
| RSRP1 | 2 | -0.917 | 63.7 |
| RSRP1 | 3 | 1.95 | 121 |
